{"sequences": {"note": "The chains behind the UniProt entries cited, without tags or fusion partners.", "UniProt Q99684": "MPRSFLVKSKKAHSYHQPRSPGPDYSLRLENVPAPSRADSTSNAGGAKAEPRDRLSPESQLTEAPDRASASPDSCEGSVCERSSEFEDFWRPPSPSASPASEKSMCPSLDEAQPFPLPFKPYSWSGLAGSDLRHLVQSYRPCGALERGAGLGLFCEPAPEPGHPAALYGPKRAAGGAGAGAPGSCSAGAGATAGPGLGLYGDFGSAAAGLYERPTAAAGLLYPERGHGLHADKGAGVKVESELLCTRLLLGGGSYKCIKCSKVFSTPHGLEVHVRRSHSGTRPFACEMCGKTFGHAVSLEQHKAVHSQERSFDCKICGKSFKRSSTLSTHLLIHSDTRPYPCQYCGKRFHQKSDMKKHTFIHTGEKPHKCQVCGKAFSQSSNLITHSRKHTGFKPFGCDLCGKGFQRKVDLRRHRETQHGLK", "UniProt Q9UKL0": "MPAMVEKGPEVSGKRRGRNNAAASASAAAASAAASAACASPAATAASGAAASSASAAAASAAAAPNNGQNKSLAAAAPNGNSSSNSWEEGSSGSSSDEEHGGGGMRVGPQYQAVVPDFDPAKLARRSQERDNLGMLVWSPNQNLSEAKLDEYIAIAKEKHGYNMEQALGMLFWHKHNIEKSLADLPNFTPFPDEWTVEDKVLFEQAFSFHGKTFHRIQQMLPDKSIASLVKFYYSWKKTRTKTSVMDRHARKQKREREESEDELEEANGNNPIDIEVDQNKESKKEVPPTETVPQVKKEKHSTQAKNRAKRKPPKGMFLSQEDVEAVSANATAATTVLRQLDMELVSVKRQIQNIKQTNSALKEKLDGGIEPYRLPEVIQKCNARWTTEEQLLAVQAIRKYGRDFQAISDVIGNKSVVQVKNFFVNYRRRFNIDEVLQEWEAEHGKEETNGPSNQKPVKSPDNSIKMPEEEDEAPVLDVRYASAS"}, "source": "paper PMC7613766", "key": {"[1]": {"target": "T1, HMG20B (human (endogenous in THP1)) (UniProt Q9P0W2)", "T1 sequence": "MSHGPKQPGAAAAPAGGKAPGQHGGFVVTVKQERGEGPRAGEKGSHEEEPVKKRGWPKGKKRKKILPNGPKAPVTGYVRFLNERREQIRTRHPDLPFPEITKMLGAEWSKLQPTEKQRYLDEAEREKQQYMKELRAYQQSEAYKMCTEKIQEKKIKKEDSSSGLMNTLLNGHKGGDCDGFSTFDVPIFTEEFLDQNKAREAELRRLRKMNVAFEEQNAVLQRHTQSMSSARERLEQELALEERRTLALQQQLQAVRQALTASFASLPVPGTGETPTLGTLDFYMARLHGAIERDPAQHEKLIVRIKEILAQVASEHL", "assay": "co-IP; nuclear immunoprecipitation in THP1 AML cells in the presence of benzonase to digest nucleic acid; western"}, "[2]": {"target": "T1, HMG20B (human (endogenous in THP1))", "assay": "co-IP; reciprocal IP-western for HMG20B and LSD1, nuclear lysates of THP1 AML cells treated with 250 nM OG86 or DMSO for 48 h"}, "[3]": {"target": "GFI1 (human (endogenous in THP1)) (UniProt Q99684)", "assay": "co-IP; nuclear immunoprecipitation in THP1 AML cells in the presence of benzonase to digest nucleic acid; western"}}, "note": "These are yes or no findings as the source states them, for the method shown. Binding seen in cells or lysates may run through a third protein. Some binding calls cover weakened binding; strength is not graded here."}
{"molecule": "GFI1 (from UniProt Q99684 1-422)", "values": [{"measurement": "binding", "setting": "[1]", "value": "no binding"}]}
{"molecule": "RCOR1 (from UniProt Q9UKL0 1-485)", "values": [{"measurement": "binding", "setting": "[2]", "value": "binds"}]}
{"molecule": "HMG20B (protein, UniProt Q9P0W2 1-317) MSHGPKQPGAAAAPAGGKAPGQHGGFVVTVKQERGEGPRAGEKGSHEEEPVKKRGWPKGKKRKKILPNGPKAPVTGYVRFLNERREQIRTRHPDLPFPEITKMLGAEWSKLQPTEKQRYLDEAEREKQQYMKELRAYQQSEAYKMCTEKIQEKKIKKEDSSSGLMNTLLNGHKGGDCDGFSTFDVPIFTEEFLDQNKAREAELRRLRKMNVAFEEQNAVLQRHTQSMSSARERLEQELALEERRTLALQQQLQAVRQALTASFASLPVPGTGETPTLGTLDFYMARLHGAIERDPAQHEKLIVRIKEILAQVASEHL", "values": [{"measurement": "binding", "setting": "[3]", "value": "no binding"}]}
